Data from publication PMC4823986.
No constants are given. Whether binding was seen depends on the method and setting. In cells and extracts the contact can be indirect. Some binding calls cover weakened binding; strength is not graded here. For some of these results: Sequences can lack the tags named with a protein. Values belong to the molecule of their own block, whether it stands above or below them.

Chains of the proteins cited; added tags and fusions are not shown.
UniProt P46223: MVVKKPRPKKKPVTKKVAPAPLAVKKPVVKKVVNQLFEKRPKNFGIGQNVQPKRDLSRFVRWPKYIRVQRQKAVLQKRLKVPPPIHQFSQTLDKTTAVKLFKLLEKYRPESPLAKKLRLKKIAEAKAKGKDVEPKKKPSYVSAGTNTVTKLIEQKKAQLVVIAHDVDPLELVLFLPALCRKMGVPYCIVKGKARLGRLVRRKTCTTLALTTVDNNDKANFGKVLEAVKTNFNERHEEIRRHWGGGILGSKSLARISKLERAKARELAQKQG

Key:
[1] = biological target: T1, Clueless (Clu), endogenous in S2R+ cells (Drosophila (endogenous in S2R+ cells)) (UniProt A1ZAB5); experiment: co-IP; S2R+ cells transfected with myc-tagged proteins; reciprocal co-IPs with Clu, western blot
T1 sequence: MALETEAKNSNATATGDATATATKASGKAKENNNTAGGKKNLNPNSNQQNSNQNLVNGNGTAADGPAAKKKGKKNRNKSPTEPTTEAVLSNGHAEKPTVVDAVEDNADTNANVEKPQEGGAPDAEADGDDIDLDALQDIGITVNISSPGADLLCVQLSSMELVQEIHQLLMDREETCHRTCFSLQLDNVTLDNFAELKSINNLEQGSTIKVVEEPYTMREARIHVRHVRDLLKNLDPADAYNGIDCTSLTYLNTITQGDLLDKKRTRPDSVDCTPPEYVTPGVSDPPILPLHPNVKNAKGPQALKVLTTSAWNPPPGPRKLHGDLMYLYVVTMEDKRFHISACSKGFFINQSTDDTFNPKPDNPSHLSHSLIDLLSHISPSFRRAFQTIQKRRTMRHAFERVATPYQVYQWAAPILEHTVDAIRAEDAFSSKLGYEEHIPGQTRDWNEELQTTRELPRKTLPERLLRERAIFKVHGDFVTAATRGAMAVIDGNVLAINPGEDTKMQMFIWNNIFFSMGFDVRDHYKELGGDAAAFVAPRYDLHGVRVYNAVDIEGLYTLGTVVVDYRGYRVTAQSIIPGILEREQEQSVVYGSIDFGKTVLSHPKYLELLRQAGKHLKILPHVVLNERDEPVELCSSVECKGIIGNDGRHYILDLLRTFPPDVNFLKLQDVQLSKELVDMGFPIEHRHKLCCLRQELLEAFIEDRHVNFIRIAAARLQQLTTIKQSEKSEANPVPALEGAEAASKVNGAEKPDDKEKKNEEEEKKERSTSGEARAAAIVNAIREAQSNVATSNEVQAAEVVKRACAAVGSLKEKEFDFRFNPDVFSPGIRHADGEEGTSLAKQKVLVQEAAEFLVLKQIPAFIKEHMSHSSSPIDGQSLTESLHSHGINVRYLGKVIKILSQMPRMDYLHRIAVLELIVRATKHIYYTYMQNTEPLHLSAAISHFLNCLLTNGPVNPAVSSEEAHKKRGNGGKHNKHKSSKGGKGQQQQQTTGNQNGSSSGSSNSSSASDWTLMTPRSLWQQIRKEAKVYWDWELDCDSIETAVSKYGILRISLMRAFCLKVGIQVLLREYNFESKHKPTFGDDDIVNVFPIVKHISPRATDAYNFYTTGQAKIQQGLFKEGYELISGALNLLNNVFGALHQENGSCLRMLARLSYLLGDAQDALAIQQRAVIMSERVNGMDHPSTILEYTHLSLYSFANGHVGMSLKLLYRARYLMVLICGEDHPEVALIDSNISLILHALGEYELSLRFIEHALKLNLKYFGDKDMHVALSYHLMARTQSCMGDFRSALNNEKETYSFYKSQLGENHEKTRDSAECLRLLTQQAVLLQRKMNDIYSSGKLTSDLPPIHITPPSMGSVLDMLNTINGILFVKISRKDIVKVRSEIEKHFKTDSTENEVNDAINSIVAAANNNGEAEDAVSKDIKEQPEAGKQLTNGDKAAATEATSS

[2] = biological target: full-length Clueless (Clu), myc-tagged and FLAG-tagged copies (Drosophila) (UniProt A1ZAB5); experiment: co-IP; S2R+ cells transfected with both myc- and FLAG-tagged full-length Clu; reciprocal immunoprecipitation, western blot
[3] = biological target: myc-tagged large Ribosomal protein (RpL) 7a (Drosophila) (UniProt P46223); experiment: co-IP; S2R+ cells transfected with myc-tagged proteins; reciprocal co-IPs with Clu, western blot
[4] = biological target: T2, myc-tagged small Ribosomal protein (RpS) 4 (Drosophila) (UniProt P41042); experiment: as above
T2 sequence: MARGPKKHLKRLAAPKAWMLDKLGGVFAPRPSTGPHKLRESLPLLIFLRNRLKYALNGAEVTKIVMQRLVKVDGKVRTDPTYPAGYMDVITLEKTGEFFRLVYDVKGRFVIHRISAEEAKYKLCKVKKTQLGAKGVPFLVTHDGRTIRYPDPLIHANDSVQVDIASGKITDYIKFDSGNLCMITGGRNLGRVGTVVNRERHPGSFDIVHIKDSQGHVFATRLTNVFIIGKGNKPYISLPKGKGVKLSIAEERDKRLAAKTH

[5] = biological target: T3, myc-tagged small Ribosomal protein RpS7 (Drosophila) (UniProt Q9VA91); experiment: as above
T3 sequence: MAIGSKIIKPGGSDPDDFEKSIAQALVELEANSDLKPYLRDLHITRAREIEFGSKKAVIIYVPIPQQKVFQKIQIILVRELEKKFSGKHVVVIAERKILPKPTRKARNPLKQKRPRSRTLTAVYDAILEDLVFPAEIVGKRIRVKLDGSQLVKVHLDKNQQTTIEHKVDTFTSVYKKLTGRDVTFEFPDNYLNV

Molecule: myc-tagged large Ribosomal protein (RpL) 7a (from UniProt P46223 1-271)
binding [1]: binds

B2: Clueless (Clu), endogenous in S2R+ cells (protein, UniProt A1ZAB5 1-1448)
chain: MALETEAKNSNATATGDATATATKASGKAKENNNTAGGKKNLNPNSNQQNSNQNLVNGNGTAADGPAAKKKGKKNRNKSPTEPTTEAVLSNGHAEKPTVVDAVEDNADTNANVEKPQEGGAPDAEADGDDIDLDALQDIGITVNISSPGADLLCVQLSSMELVQEIHQLLMDREETCHRTCFSLQLDNVTLDNFAELKSINNLEQGSTIKVVEEPYTMREARIHVRHVRDLLKNLDPADAYNGIDCTSLTYLNTITQGDLLDKKRTRPDSVDCTPPEYVTPGVSDPPILPLHPNVKNAKGPQALKVLTTSAWNPPPGPRKLHGDLMYLYVVTMEDKRFHISACSKGFFINQSTDDTFNPKPDNPSHLSHSLIDLLSHISPSFRRAFQTIQKRRTMRHAFERVATPYQVYQWAAPILEHTVDAIRAEDAFSSKLGYEEHIPGQTRDWNEELQTTRELPRKTLPERLLRERAIFKVHGDFVTAATRGAMAVIDGNVLAINPGEDTKMQMFIWNNIFFSMGFDVRDHYKELGGDAAAFVAPRYDLHGVRVYNAVDIEGLYTLGTVVVDYRGYRVTAQSIIPGILEREQEQSVVYGSIDFGKTVLSHPKYLELLRQAGKHLKILPHVVLNERDEPVELCSSVECKGIIGNDGRHYILDLLRTFPPDVNFLKLQDVQLSKELVDMGFPIEHRHKLCCLRQELLEAFIEDRHVNFIRIAAARLQQLTTIKQSEKSEANPVPALEGAEAASKVNGAEKPDDKEKKNEEEEKKERSTSGEARAAAIVNAIREAQSNVATSNEVQAAEVVKRACAAVGSLKEKEFDFRFNPDVFSPGIRHADGEEGTSLAKQKVLVQEAAEFLVLKQIPAFIKEHMSHSSSPIDGQSLTESLHSHGINVRYLGKVIKILSQMPRMDYLHRIAVLELIVRATKHIYYTYMQNTEPLHLSAAISHFLNCLLTNGPVNPAVSSEEAHKKRGNGGKHNKHKSSKGGKGQQQQQTTGNQNGSSSGSSNSSSASDWTLMTPRSLWQQIRKEAKVYWDWELDCDSIETAVSKYGILRISLMRAFCLKVGIQVLLREYNFESKHKPTFGDDDIVNVFPIVKHISPRATDAYNFYTTGQAKIQQGLFKEGYELISGALNLLNNVFGALHQENGSCLRMLARLSYLLGDAQDALAIQQRAVIMSERVNGMDHPSTILEYTHLSLYSFANGHVGMSLKLLYRARYLMVLICGEDHPEVALIDSNISLILHALGEYELSLRFIEHALKLNLKYFGDKDMHVALSYHLMARTQSCMGDFRSALNNEKETYSFYKSQLGENHEKTRDSAECLRLLTQQAVLLQRKMNDIYSSGKLTSDLPPIHITPPSMGSVLDMLNTINGILFVKISRKDIVKVRSEIEKHFKTDSTENEVNDAINSIVAAANNNGEAEDAVSKDIKEQPEAGKQLTNGDKAAATEATSS
binding [3]: binds
binding [4]: binds
binding [5]: binds

B4: myc-tagged small Ribosomal protein (RpS) 4 (protein, UniProt P41042 1-261)
chain: MARGPKKHLKRLAAPKAWMLDKLGGVFAPRPSTGPHKLRESLPLLIFLRNRLKYALNGAEVTKIVMQRLVKVDGKVRTDPTYPAGYMDVITLEKTGEFFRLVYDVKGRFVIHRISAEEAKYKLCKVKKTQLGAKGVPFLVTHDGRTIRYPDPLIHANDSVQVDIASGKITDYIKFDSGNLCMITGGRNLGRVGTVVNRERHPGSFDIVHIKDSQGHVFATRLTNVFIIGKGNKPYISLPKGKGVKLSIAEERDKRLAAKTH
binding [1]: binds

More lines, now with the values ahead:

binding [2]: binds
B1: full-length Clueless (Clu), myc-tagged and FLAG-tagged copies (protein, UniProt A1ZAB5 1-1448)
chain: MALETEAKNSNATATGDATATATKASGKAKENNNTAGGKKNLNPNSNQQNSNQNLVNGNGTAADGPAAKKKGKKNRNKSPTEPTTEAVLSNGHAEKPTVVDAVEDNADTNANVEKPQEGGAPDAEADGDDIDLDALQDIGITVNISSPGADLLCVQLSSMELVQEIHQLLMDREETCHRTCFSLQLDNVTLDNFAELKSINNLEQGSTIKVVEEPYTMREARIHVRHVRDLLKNLDPADAYNGIDCTSLTYLNTITQGDLLDKKRTRPDSVDCTPPEYVTPGVSDPPILPLHPNVKNAKGPQALKVLTTSAWNPPPGPRKLHGDLMYLYVVTMEDKRFHISACSKGFFINQSTDDTFNPKPDNPSHLSHSLIDLLSHISPSFRRAFQTIQKRRTMRHAFERVATPYQVYQWAAPILEHTVDAIRAEDAFSSKLGYEEHIPGQTRDWNEELQTTRELPRKTLPERLLRERAIFKVHGDFVTAATRGAMAVIDGNVLAINPGEDTKMQMFIWNNIFFSMGFDVRDHYKELGGDAAAFVAPRYDLHGVRVYNAVDIEGLYTLGTVVVDYRGYRVTAQSIIPGILEREQEQSVVYGSIDFGKTVLSHPKYLELLRQAGKHLKILPHVVLNERDEPVELCSSVECKGIIGNDGRHYILDLLRTFPPDVNFLKLQDVQLSKELVDMGFPIEHRHKLCCLRQELLEAFIEDRHVNFIRIAAARLQQLTTIKQSEKSEANPVPALEGAEAASKVNGAEKPDDKEKKNEEEEKKERSTSGEARAAAIVNAIREAQSNVATSNEVQAAEVVKRACAAVGSLKEKEFDFRFNPDVFSPGIRHADGEEGTSLAKQKVLVQEAAEFLVLKQIPAFIKEHMSHSSSPIDGQSLTESLHSHGINVRYLGKVIKILSQMPRMDYLHRIAVLELIVRATKHIYYTYMQNTEPLHLSAAISHFLNCLLTNGPVNPAVSSEEAHKKRGNGGKHNKHKSSKGGKGQQQQQTTGNQNGSSSGSSNSSSASDWTLMTPRSLWQQIRKEAKVYWDWELDCDSIETAVSKYGILRISLMRAFCLKVGIQVLLREYNFESKHKPTFGDDDIVNVFPIVKHISPRATDAYNFYTTGQAKIQQGLFKEGYELISGALNLLNNVFGALHQENGSCLRMLARLSYLLGDAQDALAIQQRAVIMSERVNGMDHPSTILEYTHLSLYSFANGHVGMSLKLLYRARYLMVLICGEDHPEVALIDSNISLILHALGEYELSLRFIEHALKLNLKYFGDKDMHVALSYHLMARTQSCMGDFRSALNNEKETYSFYKSQLGENHEKTRDSAECLRLLTQQAVLLQRKMNDIYSSGKLTSDLPPIHITPPSMGSVLDMLNTINGILFVKISRKDIVKVRSEIEKHFKTDSTENEVNDAINSIVAAANNNGEAEDAVSKDIKEQPEAGKQLTNGDKAAATEATSS

binding [1]: binds
B3: myc-tagged small Ribosomal protein RpS7 (protein, UniProt Q9VA91 1-194)
chain: MAIGSKIIKPGGSDPDDFEKSIAQALVELEANSDLKPYLRDLHITRAREIEFGSKKAVIIYVPIPQQKVFQKIQIILVRELEKKFSGKHVVVIAERKILPKPTRKARNPLKQKRPRSRTLTAVYDAILEDLVFPAEIVGKRIRVKLDGSQLVKVHLDKNQQTTIEHKVDTFTSVYKKLTGRDVTFEFPDNYLNV
